Assay results published in article PMC12023841, “Unlocking the Gates: A Novel Diagnostic Molecule for Quantifying Efflux Levels in Gram‐Positive Bacteria” (Advanced Healthcare Materials, 2025).

Tests used:
[1] = test system: Staphylococcus aureus efflux mutants and clinical strains
[2] = test system: Bacillus subtilis BmrA efflux mutants

## CCCCNc1ccc2nc3cc(NCCOC)c(N)cc3[n+](CCC)c2c1 [5a4]
[1]; S. aureus ATCC 25923 (basal norA efflux)
  cell pellet colour after 5a4 protocol: stained light pink
[1]; SA‐1199 (basal norA efflux)
  cell pellet colour after 5a4 protocol: stained light pink
[1]; SA‐1199B (norA overexpressing)
  cell pellet colour after 5a4 protocol: remained unstained
[1]; SA‐K1748 (mepA overexpressing)
  cell pellet colour after 5a4 protocol: pale yellow (default color)
[1]; SA‐K1758 (no functional NorA)
  cell pellet colour after 5a4 protocol: vivid pink stain
[1]; SA‐K2068 (mepA overexpressing)
  cell pellet colour after 5a4 protocol: pale yellow (default color)
[2]; bmrA overexpressed strain
  cell pellet colour after 5a4 protocol: white
[2]; ΔbmrA mutant
  cell pellet colour after 5a4 protocol: intense pink color

Like-named read-outs stand apart in the source and are kept apart here.
